{"source": "paper PMC12618784", "binders": {"B1": {"name": "Porin::HA (protein, UniProt Q94920 1-282)", "chain": "MAPPSYSDLGKQARDIFSKGYNFGLWKLDLKTKTSSGIEFNTAGHSNQESGKVFGSLETKYKVKDYGLTLTEKWNTDNTLFTEVAVQDQLLEGLKLSLEGNFAPQSGNKNGKFKVAYGHENVKADSDVNIDLKGPLINASAVLGYQGWLAGYQTAFDTQQSKLTTNNFALGYTTKDFVLHTAVNDGQEFSGSIFQRTSDKLDVGVQLSWASGTSNTKFAIGAKYQLDDDASVRAKVNNASQVGLGYQQKLRDGVTLTLSTLVDGKNFNAGGHKIGVGLELEA"}}, "target": "T1, Dmel\\Tmem43wt::GFP (Drosophila) (UniProt Q9VSB9)", "T1 sequence": "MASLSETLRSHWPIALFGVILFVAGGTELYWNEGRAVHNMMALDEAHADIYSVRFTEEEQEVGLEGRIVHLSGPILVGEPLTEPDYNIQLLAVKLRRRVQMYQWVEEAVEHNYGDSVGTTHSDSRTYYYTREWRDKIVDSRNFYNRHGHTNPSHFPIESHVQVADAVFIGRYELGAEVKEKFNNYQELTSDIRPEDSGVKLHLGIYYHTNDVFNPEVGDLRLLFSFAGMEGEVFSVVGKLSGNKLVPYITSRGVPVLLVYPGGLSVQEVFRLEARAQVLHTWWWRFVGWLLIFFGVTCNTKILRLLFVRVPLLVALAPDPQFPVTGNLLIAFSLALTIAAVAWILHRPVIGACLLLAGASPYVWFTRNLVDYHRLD", "test": "co-IP; Sf21 cells co-expressing Porin::HA and Dmel\\Tmem43::GFP constructs; anti-GFP coupled magnetic beads; Western blot, Porin::HA normalised to precipitated Dmel\\Tmem43", "note": "These are yes or no findings as the source states them, for the method shown. In cells and extracts the contact can be indirect. Some results given as binding are weak or reduced against the parent protein; the word gives no strength. Tags and fused reporters may be left off the sequences shown."}
{"binder": "B1", "values": [{"measurement": "binding", "value": "binds"}]}
